{"source": "patent US20240082265A1", "about": "“SUSTAINED RELEASE FORMULATIONS OF CRYSTALLINE DRUGS” (QUEEN MARY UNIVERSITY OF LONDON, priority 2020, published 2024)", "test": "Release of dexamethasone from heat-press TP microcapsules versus unencapsulated crystals, 3 weeks (Example 8)", "assay_type": "physicochemical", "conditions": "2.6 μg crystals without encapsulation", "note": "Entries after “also recorded” stand apart in the source; their conditions may differ. At least one compound was matched to its structure with a doubt left."}
{"smiles": "C[C@@H]1C[C@H]2[C@@H]3CCC4=CC(=O)C=C[C@]4(C)[C@@]3(F)[C@@H](O)C[C@]2(C)[C@@]1(O)C(=O)CO", "note": "[dexamethasone crystals, dexamethasone]", "values": [{"measurement": "dexamethasone released within the first 24 hours", "value": "~95", "unit": "%"}, {"measurement": "state of dexamethasone release at day 7", "value": "fully released; also recorded: essentially exhausted"}]}
